At least one compound was matched to its structure with a doubt left.
How the values were obtained:
APO-induced erections = experiment: Apomorphine (APO) bioassay of erectile function; type: in vivo, Wistar rats
From the text: 16 adult male Wistar rats from Charles River Laboratories (Montreal, Quebec) weighing 300-350 g were used in the investigation. The animals were divided into two study groups. The animals were individually housed in a climate-controlled room under a 12-hour light/dark cycle and allowed access to food (Purina Lab Chow) and water ad libitum. All procedures were in accordance with the guidelines set out by the Canadian Council on Animal Care. The animals were allowed to acclimate 5 days prior to testing and were handled by the researcher during this time.
The apomorphine (APO) bioassay of erectile function was performed in an isolated area. […] The animals were each placed in a separate hanging wire test cage in an isolated, dark and sound proof room and allowed to acclimatize to the surroundings for 10 minutes. Each rat received 80 ug/kg APO (Sigma Chemical Co., St. Louis, Mo.) prepared in physiological saline containing […] ascorbic acid via subcutaneous (s.c.) injection (lml/kg at the nape of the neck). Erectile and yawning responses to APO were monitored and recorded (30 minutes) in an adjacent room via a video monitoring system.
An erection was counted when an engorged glans penis and distal shaft were exposed. […]
For each APO testing protocol, the average number of erections and standard deviation was determined. […]

APO-induced yawns = experiment: APO-induced yawning response; type: in vivo, Wistar rats
Description: The apomorphine (APO) bioassay of erectile function was performed in an isolated area. The rat model of APO-induced erections used to assess the effects of p,p-DDE and flutamide on erectile function was based on the model developed by Heaton et al J Urol. 145:1099 (1991). The animals were each placed in a separate hanging wire test cage in an isolated, dark and sound proof room and allowed to acclimatize to the surroundings for 10 minutes. Each rat received 80 ug/kg APO (Sigma Chemical Co., St. Louis, Mo.) prepared in physiological saline containing […] ascorbic acid via subcutaneous (s.c.) injection (lml/kg at the nape of the neck). Erectile and yawning responses to APO were monitored and recorded (30 minutes) in an adjacent room via a video monitoring system.
An erection was counted when an engorged glans penis and distal shaft were exposed. A wide opening of the mouth associated with appropriate respiratory movement identified a yawn. […] Rats with unsatisfactory control erectile response were removed from further study.

erections = settings: daily subcutaneous flutamide 25 mg/kg, Gray et al; cited from earlier work

With `CC(C)C(=O)Nc1ccc([N+](=O)[O-])c(C(F)(F)F)c1` [flutamide] the APO-induced erectile responses (APO-induced erections; all flutamide doses (25, 35, 50 mg/kg), 24 hours after administration) was “Normal APO-induced erectile responses”, the APO-induced erections (APO-induced erections; highest dose of flutamide (50 mg/kg i.p.), 0.5 and 4 hours after administration) was “decrease” and the “yawning response to APO” value (APO-induced yawns; 50 mg/kg flutamide, 4, 12 and 24 hours) was “significant decrease”. The APO-induced yawns (APO-induced yawns; 25 and 35 mg/kg flutamide) was “did not effect” and the erections (erections) was “significant decrease in erections”.
